At least one peptide structure holds a part that was inferred or is arguable (an end, a ring closure or a residue). For at least one compound, name, drawing or mass did not settle the structure. Where a SMILES comes first, the peptide text is derived from it. The star is where a group is joined. PNA(A) = NCCN(CC(=O)*)C(=O)Cn1cnc2c(N)ncnc21
Tests used:
LS180 cells = assay: In vivo dose-response study, LS180 xenograft in nude mice; set-up: species or system mouse; conditions: doses 2.5, 5.0, 7.5, 10.0 mg/kg; p<0.039
[1] = test system: H661 human non-small cell lung cancer cells; assay: Apoptosis in H661 cells, Hoechst staining; assay type: cell-based; conditions: 5 mM in PBS or 0.1% Triton X100 in PBS; 24 hrs
PKC alpha = PKC alpha (Homo sapiens, UniProt P17252); assay: PKC isoform protein levels in cancer cell lines after TIM 10 (Western blot); assay type: cell-based; set-up: endogenous in cells; host or cells: MDA MB-231, T24, SKOV-3, MCF-7, Capan-2, NCI-H661, Calu-6, Calu-3; conditions: 5 mM; 24 hrs; all the cell lines tested
Description: (§1) The effect of compound TIM 10 on the levels of protein for various PKC isoforms was assessed as generally described below in the following human cancer cell lines: MDA MB-231 breast adenocarcinoma cells (ATCC HTB-26); T24 bladder transitional cell carcinoma (ATCC HTB-4); SKOV-3 ovary adenocarcinoma (ATCC HTB-77); MCF-7 breast adenocarcinoma (ATCC HTB-22); Capan-2 pancreatic adenocarcinoma (ATCC HTB-80); NCI-H661 NSCL large cells (ATCC HTB-183); Calu-6 probable lung anaplastic carcinoma (ATCC HTB-56) and Calu-3 lung adenocarcinoma (ATCC HTB-55).
Cells representative of the different cancer types were cultured according to ATCC instructions. At subconfluence, the cells were trypsinized and compound 10 (5 mM) was incorporated into the cells by pinocytic influx endocytosis according to the manufacturer's instructions (Molecular Probe). […] The protein content of each lysate was measured using Bradford protein estimation procedure (BioRad) and normalized. Following addition of sample buffer, the proteins from 15 μl of each extract were separated by electrophoresis, electro-transferred to nitrocellulose membranes and the various isoforms of PKC were detected using appropriate antibodies (Santa Cruz Biotechnology, Inc., CA). The relative intensity of bands of the expected molecular weight was estimated after scanning and the % decrease in the band intensity relative to control was calculated.

[2] = test system: LS180 human colorectal adenocarcinoma cells; assay: Establishment and growth of drug resistant colon cancer xenograft in nude mice; assay type: in vivo, mouse
[3] = test system: IMR-32 human neuroblastoma cells; conditions: neuroblastoma cells
Description: The ability of compounds PKI 1, PKI 2 and PKI 3 to inhibit cancer cell proliferation was tested in vitro using the human neuroblastoma cell line IMR-32. Monolayer cell cultures were trypsinized and the test compound was added at the doses indicated in Table 24 and internalized by pinocytic endocytosis using Influx TM pinocytic cell-loading reagent, a kit from Molecular Probes (Eugene, Oreg.) following the manufacturer's recommendations. The indicated doses refer to the concentration in the loading medium, which was used on 1×10^6 cells in a 10 μl volume, i.e. contained 10 μg to 100 ug of test compound that provides […] per cell. […] The cells were treated on day 0 of the experiment. The cells loaded with test compound were cultured in 96 well plates (5,000 cells in 100 μl per well), and the proliferation was monitored over 3 consecutive days. The increase in cell population was quantified using a Hoechst reagent-based assay (modified from Rao and Otto, 1992, Analytical Biochem. 207:186-192) that measures the total DNA of the population. Fluorescence was measured using a Millipore CytoFluor 2350 plate reader (excitation at 360 nm and emission at 460 nm). The measurements were obtained as relative fluorescence intensity, a value that is directly correlated to the total number of cells. […]

PKC epsilon = molecular target: T1, PKC epsilon (Homo sapiens, UniProt Q02156); assay: PKC isoform protein levels in cancer cell lines after TIM 10 (Western blot); assay type: cell-based; set-up: endogenous in cells; conditions: 5 mM; 24 hrs
T1 sequence (Q02156 1-737): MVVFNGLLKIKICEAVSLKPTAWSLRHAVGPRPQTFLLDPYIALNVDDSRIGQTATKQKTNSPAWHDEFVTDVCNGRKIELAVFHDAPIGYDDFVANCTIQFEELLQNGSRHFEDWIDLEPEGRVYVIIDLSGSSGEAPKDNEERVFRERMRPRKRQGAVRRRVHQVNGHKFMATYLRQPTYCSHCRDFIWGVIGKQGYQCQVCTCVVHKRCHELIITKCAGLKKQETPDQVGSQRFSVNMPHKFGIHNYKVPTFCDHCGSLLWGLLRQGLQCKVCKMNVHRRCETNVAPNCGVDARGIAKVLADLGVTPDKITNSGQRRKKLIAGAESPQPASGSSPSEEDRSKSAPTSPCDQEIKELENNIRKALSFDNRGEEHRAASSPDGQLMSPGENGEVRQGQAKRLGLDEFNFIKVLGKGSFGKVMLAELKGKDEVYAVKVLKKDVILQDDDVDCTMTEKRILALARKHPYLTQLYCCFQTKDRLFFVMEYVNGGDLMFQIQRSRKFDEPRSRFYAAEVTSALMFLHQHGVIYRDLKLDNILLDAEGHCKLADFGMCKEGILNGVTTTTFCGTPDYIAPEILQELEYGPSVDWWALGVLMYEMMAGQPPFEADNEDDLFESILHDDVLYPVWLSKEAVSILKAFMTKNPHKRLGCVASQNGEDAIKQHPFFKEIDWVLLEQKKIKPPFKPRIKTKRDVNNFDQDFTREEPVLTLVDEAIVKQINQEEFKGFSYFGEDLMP
Description: as §1
Cells representative of the different cancer types were cultured according to ATCC instructions. At subconfluence, the cells were trypsinized and compound 10 (5 mM) was incorporated into the cells by pinocytic influx endocytosis according to the manufacturer's instructions (Molecular Probe). Matching controls were treated accordingly except that vehicle was incorporated instead of compound 10. Following pinocytic influx, the cells were seeded and allowed to grow in fresh medium for 24 hrs. The cell cultures were further extracted using RIPA lysis buffer according to standard protocol. The protein content of each lysate was measured using Bradford protein estimation procedure (BioRad) and normalized. Following addition of sample buffer, the proteins from 15 μl of each extract were separated by electrophoresis, electro-transferred to nitrocellulose membranes and the various isoforms of PKC were detected using appropriate antibodies (Santa Cruz Biotechnology, Inc., CA). The relative intensity of bands of the expected molecular weight was estimated after scanning and the % decrease in the band intensity relative to control was calculated.

MDA-MB-231 cells = assay: Matrigel invasion chamber assay (basal invasion, FBS attractant); assay type: cell-based, human; conditions: 5 mM; basal invasion, 10% FBS attractant; 48 hrs
connexin 43 (Cx43) = assay: Immunocytochemistry of protein level in LS180 cells; assay type: cell-based, human; conditions: 5 or 10 μM; 24 hrs
[4] = test system: MDR efflux (Pgp, MRP-1) in LS180 cells; assay: MDR dye efflux (calcein AM, rhodamine 123), flow cytometry / plate reader; assay type: cell-based, human

SMILES: CC[C@H](C)[C@H](NC(=O)[C@H](CO)NC(=O)[C@@H](NC(=O)CNC(=O)[C@@H](NC(=O)[C@H](CC(C)C)NC(=O)[C@H](CC(N)=O)NC(=O)[C@H](CCC(N)=O)NC(=O)[C@H](C)NC(=O)[C@H](CC(=O)O)NC(=O)[C@H](CCCCN)NC(=O)CNC(=O)CNC(=O)CNC(=O)CNC(=O)CNC(=O)CNC(=O)CNC(=O)[C@H](CC(C)C)NC(=O)[C@H](CCCNC(=N)N)NC(=O)[C@H](Cc1ccccc1)NC(=O)[C@H](CCCCNC(=O)CN(CCN)C(=O)Cn1cnc2c(N)ncnc21)NC(=O)[C@H](CCCNC(=N)N)NC(=O)[C@H](CCCNC(=N)N)NC(=O)[C@H](Cc1ccccc1)NC(C)=O)[C@@H](C)CC)[C@@H](C)CC)C(N)=O [TIM 10] (Ac-FRRK(PNA(A))FRLGGGGGGGKDAQNLIGISI-NH2)
- most efficacious dose to delay tumour establishment (M1) and progression (M2 and M3) (LS180 cells): 2.5 mg/kg
- cell population / apoptosis [1]: the cell population is drastically decreased
- band intensity of the alpha isoform (PKC alpha): decreases the band intensity
- delay of tumour establishment (M1) versus control ([2]; TIM 10 5 mg/kg + doxorubicin): 14 days
- delay of tumour establishment versus control ([2]; TIM 10 5 mg/kg + doxorubicin, listed as PhGalpha1, 5 mg/kg): 100%
- time to reach tumour establishment (M1) ([2]; TIM 10 5 mg/kg every 72 hrs + doxorubicin pre-treatment): 28 days
- time of tumour growth from establishment to M2 ([2]; TIM 10 + doxorubicin pre-treatment): 31 days
- time from initial injection to the M2 stage ([2]; doxorubicin/TIM 10 treated group): 58 days
- duration of effect [3]: at least 72 h
- band intensity of PKC epsilon (PKC epsilon): does not have this effect
- % Inhibition of Invasion (MDA-MB-231 cells): 35.5%
- % Invasion (MDA-MB-231 cells): 4.5%
- level of Cx43 protein (connexin 43 (Cx43)): increased
- MDR-mediated rhodamine 123 efflux ([4]; 5 μM): substantial decrease in rhodamine 123 dye efflux
- MDR channel efflux activity (calcein-AM) ([4]; 5 μM after doxorubicin 50 ng/mL): reduction in MDR channel efflux activity
- inhibition of Pgp-mediated MDR compared with 5 μg/ml Verapamil ([4]; 5 μM, rhodamine 123 efflux): more effective
- MDR-mediated calcein efflux ([4]; 10, 5 and 2.5 μM, doxorubicin 50 ng/ml): substantial decrease in calcein dye efflux
